Data published in US9902759B2, “BH3 peptides and methods of use thereof” (Dana-Farber Cancer Institute, Inc., priority 2002, dated 2018).
At least one peptide structure holds a part that was inferred or is arguable (an end, a ring closure or a residue). Ends that are not written are not given here.

By UniProt entry, the sequences of proteins in these tests, tags left out.
UniProt Q07813, whole entry: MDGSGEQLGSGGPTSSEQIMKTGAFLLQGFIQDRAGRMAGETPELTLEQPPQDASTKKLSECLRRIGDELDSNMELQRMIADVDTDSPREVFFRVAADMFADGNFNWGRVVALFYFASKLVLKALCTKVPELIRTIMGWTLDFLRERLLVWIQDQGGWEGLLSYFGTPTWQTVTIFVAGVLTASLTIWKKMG

Experiments:
BAX = biological target: T1, BAX (Mus musculus, UniProt Q07813); experiment: BAX oligomerization in mitochondria from FL5.12 cells, BMH cross-linking; type: biochemical; settings: 100 μM peptide
T1 construct: mitochondria isolated from cultured FL5.12 cells, which contain both BAX and BAK; endogenous in cells; host or cells: mitochondria isolated from FL5.12 cells
Description: (§1) 1,6-Bismaleimidohexane was obtained from Pierce (#22330). A 10 mM stock solution in DMSO was added to treated mitochondrial suspensions at a 1:11 dilution. Cross-linking took place for 30 minutes at room temperature, followed by centrifugation to pellet mitochondria. Pellets were dissolved in NuPAGE loading buffer (Invitrogen).
(§2) Antibodies used for immunoblot analysis included anti-cytochrome c (75981A, Pharmingen), anti-BAK (Upstate Biotechnology), and anti-BAX (N-20, Santa Cruz). Antibody detection was accomplished using enhanced chemiluminescence (Western Lightning, Perkin-Elmer).

mitochondria = experiment: Cytochrome c release from isolated mitochondria (ELISA); type: biochemical, mouse; settings: BIDBH3 at 10 μM; other concentrations not stated
Description: Mouse liver mitochondria were isolated from age-matched wt or Bak −/− mice. Livers were diced, subjected to Dounce rotary Teflon pestle disruption, then homogenized using a Kinematica Polytron homognizer. Following suspension in isolation buffer (250 mM sucrose, 10 mM Tris-HCl pH 7.4, 0.1 mM EGTA), mitochondria were isolated by differential centrifugation steps, followed by two washes in isolation buffer. Mitochondria from FL5.12 cells were isolated by cell disruption followed by differential centrifugation and washing as above. Cell disruption was performed either by a Kinematika Polytron homogenizer or by a combination of Dounce homogenization followed by 6-10 expulsions through a 27 gauge needle.
Mitochondria at a protein concentration of 0.5 mg/ml were treated at room temperature in experimental buffer (125 mM KCl, 10 mM Tris-MOPS pH 7.4, 5 mM glutamate, 2.5 mM malate, 1 mM KPO4, 10 µM EGTA-Tris pH 7.4). Percent release was quantitated using a colorimetric ELISA (MCTC0, R&D Systems). In all experiments, treatments with DMSO were used as a control for solvent activity.

BAK = biological target: T2, BAK (Mus musculus, UniProt O08734); experiment: BAK oligomerization, BMH cross-linking and immunoblot; type: biochemical; settings: 100 μM peptide, cross-linker BMH
T2 construct: capable of inducing an allosteric change in mitochondrial-resident BAK or BAX; from tissue
T2 sequence (O08734 1-209): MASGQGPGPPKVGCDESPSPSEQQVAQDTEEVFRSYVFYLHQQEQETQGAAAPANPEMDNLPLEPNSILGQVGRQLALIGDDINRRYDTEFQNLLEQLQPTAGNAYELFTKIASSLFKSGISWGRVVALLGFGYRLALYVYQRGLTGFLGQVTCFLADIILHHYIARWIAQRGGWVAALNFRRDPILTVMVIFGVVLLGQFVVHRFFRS
Description: as §1, §2

[1] = Circular dichroism, α-helical content; type: physicochemical; settings: CD, 50 mM potassium phosphate pH 7, 20° C.
Description: Circular dichroism (CD) spectra were obtained on a Jasco J-710 spectropolarimeter at 20° C. using the following standard measurement parameters: wavelength, 190-260 nm; step resolution, 0.5 nm; speed, 20 nm/sec; accumulations, 10; response, 1 sec; band width, 1 nm; path length, 0.1 cm. Stock solutions of peptide were dissolved in deionized water and concentrations determined by amino acid analysis. Samples were then diluted in 50 mM potassium phosphate pH 7 to a calculated final concentration of 50 μM. The CD spectrum of each sample was measured in triplicate and a background spectrum of diluent alone was subtracted. For comparison, the subtracted CD spectra were normalized to 35 μM based on repeat peptide concentration determination by amino acid analysis of the diluted peptide solutions. The α-helical content of each peptide was calculated by dividing the mean residue ellipticity [q]222obs by the reported [q]222obs for a model helical decapeptide (Yang et al., 1986).

Sequence: EDIIRNIARHAAQVGASMDR [BIDBH3 mut]
- oligomerization of BAX (BAX): lacked the ability
- cytochrome c release by peptide or protein alone (mitochondria): lacked the ability
- BAK oligomerization (BAK): lacked the ability
- % Helicity (222 nm) [1]: 16.4%
